The values that follow come from doi:10.1101/435867.

The chains behind the UniProt entries cited, without tags or fusion partners. Residues count along the entry.
UniProt Q16620, residues 32-822: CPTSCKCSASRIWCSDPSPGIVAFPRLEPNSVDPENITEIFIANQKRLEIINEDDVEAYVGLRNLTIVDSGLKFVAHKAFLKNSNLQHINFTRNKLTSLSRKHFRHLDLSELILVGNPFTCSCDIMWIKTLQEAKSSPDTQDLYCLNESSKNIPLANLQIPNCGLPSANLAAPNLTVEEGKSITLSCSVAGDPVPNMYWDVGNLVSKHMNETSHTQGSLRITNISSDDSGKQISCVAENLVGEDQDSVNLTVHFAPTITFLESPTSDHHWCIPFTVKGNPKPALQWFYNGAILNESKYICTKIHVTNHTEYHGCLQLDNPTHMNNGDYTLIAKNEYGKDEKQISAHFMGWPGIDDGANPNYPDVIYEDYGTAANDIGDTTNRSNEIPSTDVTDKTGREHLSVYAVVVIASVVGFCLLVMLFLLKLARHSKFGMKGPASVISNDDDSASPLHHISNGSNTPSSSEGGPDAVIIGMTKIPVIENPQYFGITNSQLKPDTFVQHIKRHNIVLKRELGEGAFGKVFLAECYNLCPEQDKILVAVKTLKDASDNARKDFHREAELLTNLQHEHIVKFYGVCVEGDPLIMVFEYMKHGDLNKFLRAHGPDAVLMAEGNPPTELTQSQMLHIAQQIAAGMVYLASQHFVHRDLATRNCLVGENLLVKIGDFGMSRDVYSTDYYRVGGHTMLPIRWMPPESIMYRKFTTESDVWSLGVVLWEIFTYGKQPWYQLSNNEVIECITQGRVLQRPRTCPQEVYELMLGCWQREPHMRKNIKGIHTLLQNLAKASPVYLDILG

The target of the assay is TrkB (UniProt Q16620). The experiment in a line: pull-down.

Results are given in words; binding and its absence hold for the method and conditions named. Binding seen in cells or lysates may run through a third protein. Some binding calls cover weakened binding; strength is not graded here.

Take “TrkB (from UniProt Q16620 32-822) (receptor)”: the binding result is given as “binds”.
